Experimental data from PMC11643744, “New Conjugates of Vancomycin with Cell-Penetrating Peptides—Synthesis, Antimicrobial Activity, Cytotoxicity, and BBB Permeability Studies” (Molecules, 2024).

Details: PAMPA, pH 7.4
Source text: This assay utilized a 96-well plate assembly consisting of a filter plate pre-coated with polar brain lipids (donor plate) and a receiver plate (acceptor plate). The phospholipid mixture used to coat the membrane was extracted from porcine polar brain lipids, with the following composition: 12.6% phosphatidylcholine, 33.1% phosphatidylethanolamine, 18.5% phosphatidylserine, 4.1% phosphatidylinositol, 0.8% phosphatidic acid, and 30.9% of other compounds, including cerebrosides, sulfatides, and pigments.
In each well of the donor filtration plate (Multiscreen Filter Plate, PVDF with a pore size of 0.45 µm), 5 µL of the phospholipid mixture in n-dodecane (20 mg/mL) was carefully applied to form the artificial membrane. After coating, 200 µL of phosphate-buffered saline (PBS at pH 7.4) containing 5% dimethyl sulfoxide (DMSO) as a co-solvent, and the test compound (at a concentration of 20 µM) was added to each well of the donor plate (in triplicate). […] The plate lid was then replaced and the resulting assembled donor–acceptor plates were incubated at room temperature for 20 h. […] The concentrations of the tested compounds were determined by LC-MS. […] The eluted solution was monitored by an ESI-MS detector operated in a selected ion monitoring mode (SIM). […]

CN1C(=O)CN=C(c2ccccc2)c2cc(Cl)ccc21 [Diazepam, reference compound]
R, mass retention: 61.7 ± 6.4%
